From PubChem BioAssay AID296 (DTP/NCI, 2004)
The list shows only some results of the screen, not a fair sample: it is rich in T/C values a quarter to a half above the control, in often repeated tests (any T/C) and in doses without a T/C. Other doses and runs of a compound stand elsewhere. T/C is the treated group as % of the vehicle group. Schedule codes are those of the source, read here as Q, the interval in days (D) or hours (H), X, the number of doses. Some T/C values are negative: the treated tumours shrank. Some doses were run more than once; the results are listed from low to high. Some T/C values carry the count of animals alive at the toxicity check (mostly the fifth day); without a count, all were alive then. Some doses have a count of surviving animals in place of a T/C: the source holds a T/C of zero for them, seemingly a mark for toxic or unscored doses. Counts of survivors are from the toxicity check (mostly the fifth day) where no day follows; animals may have died later.

System: MX-1 breast xenograft, nude mice, tumor weight T/C
Assay: NCI In Vivo Anticancer Drug Screen. Data for tumor model Human Mammary Carcinoma MX-1 Xenograft (intrarenal inoculation) in NU/NU Swiss (nude) mice
Conditions: T/C endpoint: mean tumor weight change, higher T/C = larger tumour; for T/C: evaluated on day 11
Outline: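 Tumor-bearing mice were treated with test compound alongside a vehicle-treated control group. Survival or tumor size was measured, and activity is expressed as the treated-group value divided by the control-group value.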

[1] = dose: 300.0 mg/kg/injection, schedule: Q04DX003 (sc), vehicle: Klucel (hydroxypropylcellulose) (HPC)
[2] = dose: 1200.0 mg/kg/injection, schedule: Q04DX003 (sc), vehicle: saline with Tween-80
[3] = dose: 100.0 mg/kg/injection, schedule: Q01DX010 (sc), vehicle: saline
[4] = dose: 2400.0 mg/kg/injection, schedule: Q04DX003 (sc), vehicle: saline with Tween-80

SMILES: CN(C)N=Nc1ccc(S(N)(=O)=O)cc1
- survivor count (dose: 800.0 mg/kg/injection, schedule: Q01DX010 (sc), vehicle: Klucel (hydroxypropylcellulose) (HPC)): 1 of 3 on day 11

SMILES: Clc1ccc(C2SC=Cc3ccccc32)cc1 (stereo not given)
- T/C [1]: 128 % of control [4 of 6 alive on day 11]
- T/C (dose: 2400.0 mg/kg/injection, schedule: Q04DX003 (sc), vehicle: Klucel (hydroxypropylcellulose) (HPC)): 136 % of control [5 of 6 alive on day 11]

SMILES: CO[C@@]12[C@@H]3N[C@@H]3CN1C1=C(C(=O)C(NCCc3ccccn3)=C(C)C1=O)[C@@H]2COC(N)=O
- survivor count (dose: 50.0 mg/kg/injection, schedule: Q04DX003 (ip), vehicle: saline with Tween-80): 0 of 6 on day 11

SMILES: CC[C@@]1(O)C(=O)OCc2c1cc1n(c2=O)Cc2cc3cc(O)ccc3nc2-1
- survivor count (dose: 256.0 mg/kg/injection, schedule: Q04DX003 (sc), vehicle: suspension in saline): 3 of 6 on day 11

SMILES: CSc1ncnc2c1ncn2C1OC(CO)C(O)C1O (stereo not given)
- survivor count (dose: 300.0 mg/kg/injection, schedule: Q04DX003 (sc), vehicle: saline + alcohol): 3 of 6 on day 11

SMILES: CN(C)CCN1C(=O)c2cccc3cc(N)cc(c23)C1=O
- survivor count (dose: 64.0 mg/kg/injection, schedule: Q04DX003 (sc), vehicle: saline with Tween-80): 1 of 6 on day 11
- survivor count (dose: 128.0 mg/kg/injection, schedule: Q04DX003 (sc), vehicle: saline with Tween-80): 0 of 6 on day 11

SMILES: COC1=CCC23C(=O)C=CC(=O)C2(C1)C(=O)c1ccccc1C3=O (stereo not given)
- survivor count (dose: 75.0 mg/kg/injection, schedule: Q04DX003 (ip), vehicle: saline with Tween-80): 3 of 6 on day 11
- survivor count (dose: 150.0 mg/kg/injection, schedule: Q04DX003 (ip), vehicle: saline with Tween-80): 3 of 6 on day 11
- survivor count (dose: 300.0 mg/kg/injection, schedule: Q04DX003 (ip), vehicle: saline with Tween-80): 0 of 6 on day 11

SMILES: O=C1CN(Cc2ccc3c(c2)OCO3)NO1
- survivor count [2]: 3 of 6 on day 11

SMILES: C(CC1CO1)C1CO1 (stereo not given)
- T/C (dose: 75.0 mg/kg/injection, schedule: Q04DX003 (sc), vehicle: saline): -22, 15, 18, 20 % of control
- T/C (dose: 150.0 mg/kg/injection, schedule: Q04DX003 (sc), vehicle: saline): -100 [4 of 6 alive on day 11], -78, -61, 1 % of control [5 of 6 alive on day 11]
- survivor count (dose: 200.0 mg/kg/injection, schedule: Q01DX010 (sc), vehicle: saline): 0 of 3 on day 11 and 0 of 6 on day 11
- survivor count (dose: 300.0 mg/kg/injection, schedule: Q04DX003 (sc), vehicle: saline): 0 of 6 on day 11
- survivor count (dose: 300.0 mg/kg/injection, schedule: Q04DX003 (sc), vehicle: suspension in saline): 0 of 6 on day 11
- survivor count (dose: 600.0 mg/kg/injection, schedule: Q04DX003 (sc), vehicle: saline): 0 of 6 on day 11
- survivor count (dose: 600.0 mg/kg/injection, schedule: Q04DX003 (sc), vehicle: suspension in saline): 0 of 6 on day 11

SMILES: CC[N](CC)[Ge]([CH2]C)[CH2]C.CC[N](CC)[Ge]([CH2]C)[CH2]C
- survivor count [3]: 0 of 3 on day 11

SMILES: COc1cccc2c1C(=O)c1c(O)c3c(c(O)c1C2=O)C[C@@](O)(/C(C)=N/NC(=O)c1ccccc1)C[C@@H]3OC1CC(N)C(O)C(C)O1 (stereo not given in full)
- survivor count (dose: 75.0 mg/kg/injection, schedule: Q04DX003 (sc), vehicle: water): 0 of 6 on day 11
- survivor count (dose: 150.0 mg/kg/injection, schedule: Q04DX003 (sc), vehicle: water): 0 of 6 on day 11

SMILES: CCC1=C2C(=O)c3ccccc3C2=C(C)S(=O)(=O)O1
- T/C [4]: 134 % of control [5 of 6 alive on day 11]

SMILES: CC[C@@H](C)[C@@H]1NC(=O)C(NC(=O)C(CC(C)C)N(C)C(=O)C2CCCN2C(=O)C(C)O)C(C)OC(=O)C(Cc2ccc(OC)cc2)N(C)C(=O)C2CCCN2C(=O)C(CC(C)C)NC(=O)C(C)C(=O)C(C(C)C)OC(=O)C[C@H]1O (stereo not given in full)
- survivor count (dose: 2400.0 micrograms/kg/injection, schedule: Q04DX003 (sc), vehicle: distilled water + alcohol): 3 of 6 on day 11

SMILES: Nc1ncnc2c1ncn2C1C=C(CO)C(O)C1O (stereo not given)
- survivor count (dose: 30.0 mg/kg/injection, schedule: Q04DX003 (sc), vehicle: saline): 0 of 6 on day 11

SMILES: COc1cc(C(=O)N/N=C/c2cccc([N+](=O)[O-])c2)cc(OC)c1OC
- T/C (dose: 600.0 mg/kg/injection, schedule: Q04DX003 (sc), vehicle: saline with Tween-80): 125 % of control [4 of 6 alive on day 11]
- survivor count [2]: 3 of 6 on day 11

SMILES: C=Cc1cnc([N+](=O)[O-])n1C
- survivor count (dose: 1200.0 mg/kg/injection, schedule: Q04DX003 (sc), vehicle: Klucel (hydroxypropylcellulose) (HPC)): 0 of 6 on day 11

SMILES: CCN(CC)CCOC(=O)Cc1cccc2c(=O)cc(-c3ccccc3)oc12
- T/C (dose: 50.0 mg/kg/injection, schedule: Q04DX003 (sc), vehicle: saline with Tween-80): 148 % of control
- survivor count (dose: 400.0 mg/kg/injection, schedule: Q04DX003 (sc), vehicle: saline with Tween-80): 2 of 6 on day 11

SMILES: COc1ccc(C(=O)/C(Br)=C/C(=O)O)cc1
- survivor count [3]: 1 of 3 on day 11

SMILES: CCOC(=O)c1ccc(NN=NCCF)cc1
- T/C (dose: 75.0 mg/kg/injection, schedule: Q04DX003 (ip), vehicle: distilled water + Tween-80 + alcohol): 134 % of control

SMILES: O=c1[nH]cnc2c1ccn2C1OC(CO)C(O)C1O (stereo not given)
- survivor count (dose: 50.0 mg/kg/injection, schedule: Q04DX003 (sc), vehicle: saline): 1 of 6 on day 11
- survivor count (dose: 100.0 mg/kg/injection, schedule: Q04DX003 (sc), vehicle: saline): 0 of 6 on day 11

SMILES: CN(C)N=Nc1ccc(C(=O)O)cc1
- survivor count (dose: 800.0 mg/kg/injection, schedule: Q04DX003 (ip), vehicle: saline): 0 of 6 on day 11

SMILES: CC1(C)OCC(CO)(Nc2nc(N3CC3)nc(N3CC3)n2)CO1
- survivor count (dose: 2.5 mg/kg/injection, schedule: Q01DX010 (sc), vehicle: saline): 1 of 3 on day 11
- survivor count (dose: 5.0 mg/kg/injection, schedule: Q01DX010 (sc), vehicle: saline): 0 of 3 on day 11
- survivor count (dose: 10.0 mg/kg/injection, schedule: Q01DX010 (sc), vehicle: saline): 0 of 3 on day 11

SMILES: O=C1c2ccccc2C(=O)c2c3c(cc(NCCNCCO)c21)N(CCO)CCN3
- T/C (dose: 100.0 mg/kg/injection, schedule: Q04DX003 (sc), vehicle: DMSO): 132 % of control
- T/C (dose: 400.0 mg/kg/injection, schedule: Q04DX003 (sc), vehicle: DMSO): 137 % of control
- T/C (dose: 800.0 mg/kg/injection, schedule: Q04DX003 (sc), vehicle: DMSO): 144 % of control [5 of 6 alive on day 11]

SMILES: OCC1OC(n2cnc3cc(Cl)c(Cl)cc32)C(O)C1O (stereo not given)
- T/C (dose: 300.0 mg/kg/injection, schedule: Q04DX003 (sc), vehicle: saline with Tween-80): 125 % of control [4 of 5 alive on day 11]
- survivor count [2]: 3 of 6 on day 11
- survivor count [4]: 1 of 5 on day 11

SMILES: CCC(C)Nc1ccc(N)cc1 (stereo not given)
- T/C (dose: 9.0 mg/kg/injection, schedule: Q04DX003 (sc), vehicle: Klucel (hydroxypropylcellulose) (HPC)): 149 % of control
- survivor count (dose: 36.0 mg/kg/injection, schedule: Q04DX003 (sc), vehicle: Klucel (hydroxypropylcellulose) (HPC)): 2 of 6 on day 11

SMILES: CC1=NN(c2cccc(S(=O)(=O)O)c2)C(=O)C1N=Nc1cc(Cl)cc(S(=O)(=O)O)c1O.CC1=NN(c2cccc(S(=O)(=O)O)c2)C(=O)C1N=Nc1cc(Cl)cc(S(=O)(=O)O)c1O.[Cr] (stereo not given)
- survivor count (dose: 1200.0 mg/kg/injection, schedule: Q04DX003 (ip), vehicle: saline): 0 of 6 on day 11

SMILES: O=C1C=CC(n2cc(F)c(=O)[nH]c2=O)O1 (stereo not given)
- T/C (dose: 37.5 mg/kg/injection, schedule: Q04DX003 (sc), vehicle: Klucel (hydroxypropylcellulose) (HPC)): 145 % of control [5 of 6 alive on day 11]
- survivor count (dose: 150.0 mg/kg/injection, schedule: Q04DX003 (sc), vehicle: Klucel (hydroxypropylcellulose) (HPC)): 1 of 6 on day 11
- survivor count [1]: 0 of 6 on day 11
